# At least one peptide structure holds a part that was inferred or is arguable (an end, a ring closure or a residue). Square brackets hold non-standard residues; d marks the D form. Peptide text beside a SMILES is read from it.
# Legend:
# granulosa cells = assay: TACS MTT cell proliferation and apoptosis assays, treated mice; type: in vivo, mouse; settings: compared to baseline and control groups
# [1] = system: luteinized granulosa cells (GCs); assay: real-time RT-PCR of mRNA levels in granulosa cells; type: cell-based, human
# [2] = system: ovarian follicles of C57BL/6J female mice; assay: in vivo mouse ovary histology, follicle count and cell proliferation
# Text: Knowledge of the developmental landmarks and the highly inbred conformity made C57BL/6J female mice a natural choice for this study. In this mouse strain, puberty is characterized by vaginal opening at approximately 25 days of life, estrus 3-4 days later, and subsequently by regular cycling every 5-6 days. Maturity is considered to be reached at 90 days of life (12 weeks).
# Briefly, 24 C57BL mature female mice (18 weeks old) were allocated to four (4) experimental groups: baseline group (6 mice), AMHR2BP (SEQ ID NO: 1) group (6 mice), a recombinant rAMH group (6 mice), and control group (6 mice; 21 weeks of age, that received saline). The six mice in the baseline group were euthanized at the beginning of the experiment and comprised the baseline against which to compare the 2 experimental, and the control, groups. Mice in the AMHR2BP (SEQ ID NO: 1) group received AMHR2BP (SEQ ID NO: 1) at a daily dose of 50 μg/day (BP group); the rAMH group received recombinant AMH (rAMH) at a daily dose of 1.8 μg/day (to obtain 24.0 ng/ml serum level), and the control group received normal saline.
# In order to accomplish this task, an osmotic pump was implanted intraperitoneally at time zero. […] The osmotic pump (ALZET Osmotic Pumps, model 1004, Cupertino, CA) administered AMHR2BP (SEQ ID NO: 1) and rAMH with a flow rate (QT) of 0.11 μl/h for 4 weeks, based on a mouse temperature of 36.9° C. and a tissue osmolality of 7.5 atm. The daily AMHR2BP (SEQ ID NO: 1) dose was chosen based on the results of Example 3 (above) and estimated in vitro to in vivo extrapolation (IVIVE), while the rAMH dose was determined as described in reference. Mice in the control group were treated with normal saline by using the same osmotic pump vehicle implanted intraperitoneally. All mice in the 2 experimental, and the control, groups were euthanized 3 weeks into the experiment. All mice underwent a blood draw just prior to euthanasia, and their ovaries were explanted for real-time RT-PCR and histological analyses.
# After dissection, one ovary was stored in formalin and embedded in paraffin for immunohistochemical examination of follicular development and count with hematoxylin and eosin staining, while Ki67 slides were used for examination of cell proliferation. The other ovary was frozen for mRNA analysis (see below). Five μm-thick sections were serially cut and every 5th section analyzed for follicular counts. All ovarian cortex specimens where obtained from each group, and at least three sections were analyzed in each tissue specimen. The computerized program used for image analysis, CaseCenter™ by 3DHistech Pathology Information System™ (Version 2.3; Budapest, Hungary), allowed us to examine all the sections at the same time and to accurately count all the follicles in each section without redundancy. For follicle counting, the investigators were blinded to the treatment groups. One oocyte surrounded by a monolayer of flat, or cubic, granulosa cells enclosed by a basement membrane identified a primordial (PDF) and a primary follicle (PRF), respectively. Secondary follicles (SEF) were identified with one oocyte surrounded by multiple layers of cubic granulosa cells, and tertiary follicles (TEF) by fluid accumulation amid the granulosa cells.
# [3] = serum markers of treated mice; type: in vivo; settings: mouse serum
# [4] = system: A2780 (endometroid ovarian cancer) cells; assay: MTT cell proliferation assay; type: cell-based; settings: 24 hours
# Protocol: (§1) This example describes the effect of the AMH receptor binding peptides from Example 1 on cellular proliferation, in accordance with certain example embodiments. Briefly, the first two AMH receptor binding peptides (SEQ ID NOS:1-2) from Table 1 were tested on four types of AMHR2-expressing, immortalized, chemotherapy-resistant ovarian cancer cells: SKOV-3 (ovarian serous cystadenocarcinoma), EL-1 (epithelial ovarian cancer), A2780 (endometroid ovarian cancer), and MDAH (endometroid ovarian cancer) in an MTT Assay (Trevigen™ MTT Cell Proliferation Assay).
# (§2) For each cell line, cells were seeded into Falcon tissue culture treated 96-well plates in a fixed volume of 100 mcl at a density of 8,000 cells/well. […] Each experiment was executed in triplicates. For 3+1 treatments×3 wells+10 extra=22 wells×8000 cells per well, the total number of cells needed per AMH receptor binding peptide/cell line was 176,000. The cells were spun down in a sterile 15 ml conical tube for 5 minutes at 200×g and then resuspended in 2.2 ml of media (100 ul per well×22 wells). 100 mcl of the cell-containing fluid (=8,000 cells) were placed in each well of the 96-well plate. After 24 hours the media was removed from each well and replaced with the 4 treatment media (phenol-free media). At this point, 10 extra wells with media, but no cells, were created per each cell line (10×4=40 wells). The AMH receptor binding peptides (AMHR2BP (SEQ ID NO: 1) or AMHR2BP2 (SEQ ID NO: 2)) were administered in the culture medium and the effects analyzed after 24 hours in culture as percentage reduction of cell replication using an MTT […] assay.
# [5] = system: MDAH (endometroid ovarian cancer) cells; assay: MTT cell proliferation assay; type: cell-based; settings: 24 hours
# Protocol: as §1, §2
# [6] = system: EL-1 (epithelial ovarian cancer) cells; assay: MTT cell proliferation assay; type: cell-based; settings: 24 hours
# Protocol: as §1, §2
# [7] = system: SKOV-3 (ovarian serous cystadenocarcinoma) cells; assay: MTT cell proliferation assay; type: cell-based; settings: 24 hours
# Protocol: as §1, §2
# [8] = AMHR2BP 10 μg/ml, 24 hours, vs the other groups
# [9] = granulosa cells, 10 μg/ml, 24 hours, mean ± SD
# [10] = mouse ovarian cortex, 3 weeks, i.p. osmotic pump, AMHR2BP 50 μg/day, rAMH 1.8 μg/day
# [11] = compared to control and baseline groups
# [12] = 5, 10 and 20 μg/ml, vs untreated control
structure (smiles),measurement,setting,value
"CC(C)C[C@@H](NC(=O)[C@@H](C)NC(=O)[C@@H](NC(=O)CNC(=O)[C@H](CO)NC(=O)[C@@H](NC(=O)[C@@H](CCCNC(=N)N)NC(=O)[C@H](Cc1ccccc1)NC(=O)[C@H](CCC(N)=O)NC(=O)[C@H](CC(N)=O)NC(=O)[C@H](Cc1ccc(O)cc1)NC(=O)[C@H](C)NC(=O)[C@H](CC(N)=O)NC(=O)[C@H](CO)NC(=O)CNC(=O)[C@@H](N)C(C)C)C(C)C)C(C)C)C(=O)N[C@@H](CO)C(=O)O [SEQ ID NO: 1, VGSNAYNQFrVSGValS] (H-VGSNAYNQF[dR]VSGV[dA][dL]S-OH)",granulosa cell apoptosis rate,granulosa cells,lower
same,granulosa cell proliferation rate,granulosa cells,lower
same,% Change AMH mRNA,[1]; [8],−45%
same,% Change Caspase3 mRNA,[1]; [8],−82%
same,% Change FSH-R mRNA,[1]; [8],−63%
same,% Change Inhibin B mRNA,[1]; [8],−51%
same,% Change Ki67 mRNA,[1]; [8],−56%
same,AMH mRNA level,[1]; [9],1.60 ± 0.1 pg/μg RNA
same,AMH-R2 mRNA level,[1]; [9],4.17 ± 0.2 pg/μg RNA
same,Caspase3 mRNA level,[1]; [9],207.3 ± 4.7 pg/μg RNA
same,FSH-R mRNA level,[1]; [9],1.65 ± 0.1 pg/μg RNA
same,Inhibin B mRNA level,[1]; [9],46.9 ± 1.1 pg/μg RNA
same,Ki67 mRNA level,[1]; [9],229.5 ± 6.7 pg/μg RNA
same,reduction of AMH expression,"[1]; granulosa cells, incubation at 10 ng/ml (so in the source)",45%
same,cell proliferation in the secondary follicles,"[2]; Ki67 slides, mouse ovary, 50 μg/day, 3 weeks",decreased cell proliferation
same,PDFs compared with the baseline group,[2]; baseline group 18 weeks' age,did not change
same,PRFs compared with the baseline group,[2]; baseline group 18 weeks' age,decreased
same,SEFs compared with the baseline group,[2]; baseline group 18 weeks' age,increased
same,TEFs compared with the baseline group,[2]; baseline group 18 weeks' age,did not change
same,corpora lutea compared with the baseline group,[2]; baseline group 18 weeks' age,did not change
same,PDFs compared with the control (placebo) group,[2]; control group 21 weeks' age,increased
same,PRFs compared with the control (placebo) group,[2]; control group 21 weeks' age,significantly decreased
same,SEFs compared with the control (placebo) group,[2]; control group 21 weeks' age,unchanged
same,TEFs compared with the control (placebo) group,[2]; control group 21 weeks' age,significantly decreased
same,corpora lutea compared with the control group,[2]; control group 21 weeks' age,increased
same,Corp. Lutea/mm^3 Median,[2]; [10],5.0 /mm^3
same,PDF/mm^3 Median,[2]; [10],1012 /mm^3
same,PRF/mm^3 Median,[2]; [10],383 /mm^3
same,SEF/mm^3 Median,[2]; [10],1371 /mm^3
same,TEF/mm^3 Median,[2]; [10],587 /mm^3
same,serum estradiol,[3]; [11],unchanged
same,serum progesterone,[3]; [11],"similar, or lower"
same,serum Inhibin B,[3]; relative to control and baseline groups,"unchanged, or increased"
same,serum FSH and LH,[3]; versus control and baseline groups,unchanged
same,cell proliferation,[4]; 10 μg/ml,fully stop cellular proliferation
same,cell proliferation,[4]; 20 μg/ml,arrested cell proliferation
same,cell proliferation,[4]; [12],decreased cell proliferation
same,cell proliferation,[5]; 20 μg/ml,arrested cell proliferation
same,cell proliferation,[5]; [12],decreased cell proliferation
same,cell proliferation,[6]; 10 μg/ml,fully stop cellular proliferation
same,cell proliferation,[6]; 20 μg/ml,arrested cell proliferation
same,cell proliferation,[6]; [12],decreased cell proliferation
same,cell proliferation,[7]; 10 μg/ml,fully stop cellular proliferation
same,cell proliferation,[7]; 20 μg/ml,arrested cell proliferation
same,cell proliferation,[7]; [12],decreased cell proliferation

# — patent US12662542B2, “Agnostic anti-mullerian hormone receptor binding peptides” (OVARES D LLC, priority 2019, dated 2026)
